Results from PubChem BioAssay AID1347423 (Functional Genomics Laboratory (NCATS/FGL), 2020).
Among all 52,000 sequences or so, about 210 (0.4%) were called active.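 The calls were made as follows: active = gene whose silencing raises cell survival under the drug, median off-target-corrected z-score across its silencing RNAs 2 or more; inactive = the rest.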 The list shows a part of the results.

Assay: Resistance to Poly (ADP-Ribose) Polymerase inhibitor: Gene Identification via Genome-wide siRNA Screen
Conditions: mouse BRCA2 R2336H ES cells, olaparib, CellTiter-Glo viability; hits give high values
In short: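 Genome-wide siRNA screen (3 siRNAs/gene, 20 nM) in mouse ES cells carrying hypomorphic BRCA2 R2336H; olaparib 500 nM added 48 h post-transfection, CellTiter-Glo viability 72 h later. Normalized to plate-median negative control; MAD z-scores, gene median, seed-adjusted.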

Sequence | z-score
GGUUUCUACACAUUUAAGATT against Gpr44 | inactive: 0.896
GGUGUCAGAUAAUGAUUGUTT against 4933426M11Rik | inactive: 1.12
CCUAUUAAGCGAUCCAGAUTT against Kcnj16 | inactive: 0.538
CCCAUGAAAUUUCUGUGCGTT against Adcy3 | inactive: 0.415
GGCUGGAGCCUCAAAUAUCTT against Rapsn | inactive: -0.705
GGUGGAAAAUUGAUACAAATT against Stx17 | inactive: -0.915
GGUUGUUAUUGGAAAAGCATT against Pdpk1 | inactive: -1.31
GCUGUAUUUCUGUUAACACTT against 6720425G15Rik | inactive: -0.692
GCACAACCCUAGGCUAUCCTT against 1700091F14Rik | inactive: 0.519
GCAGUGUGAAAUCAACUAUTT against Frg1 | inactive: 0.497
CCGCCAAGCUCAACUAUCUTT against Top1mt | inactive: -1.58
GCAUUCACUCCAUCAAUAGTT against LOC433886 | inactive: -1.09
GGUUCUGUCUUUUACUUUCTT against Olfr1496 | inactive: 1
GGGUUACAAUAACUGGACATT against Ggcx | inactive: -2.69
GGUGUCACCAUUUCAGUGGTT against Lbp | inactive: 0.901
GGGCCAGACAAUCAAACUGTT against Kcne3 | inactive: 0.984
CUGUAUGUUAUCUCUACACTT against Olfr1513 | inactive: -1.49
CCGAUAAUAUCAAUGGAAATT against Thrap4 | inactive: 1.41
CCAUAUGUGAGAAACUACATT against AA545217 | inactive: -1.9
GGCAAGGACUUCAACAAGATT against 5430407P10Rik | inactive: -0.0654
GGAAAAACUUCAGGAAGAATT against BC028768 | inactive: 0.449
GGUAUAGCACCAUCCUGACTT against Olfr651 | inactive: -0.541
GGAUGACAUAUUUUUGGACTT against Mpv17l | inactive: 0.441

As a working copy, part of the list above:
Sequence | z-score
CCCAUGAAAUUUCUGUGCGTT against Adcy3 | inactive: 0.415
GGCUGGAGCCUCAAAUAUCTT against Rapsn | inactive: -0.705
GGUGGAAAAUUGAUACAAATT against Stx17 | inactive: -0.915

Next results:

Sequence | z-score
GGUUCAGCAGUUGUCUGAGTT against 1700011F14Rik | inactive: -0.598
GCUUUGAGAGGUGUUGAUATT against LOC619945 | inactive: 0.551
CCCUACGUGACAACCAGCATT against DXBwg1396e | inactive: -1.26
CCUGGAUCAGCAAUCCACATT against Lpxn | inactive: 0.103
GGAGAAUGAAAGGAUUCUGTT against 1700040L02Rik | inactive: 1.52
GCUACAUCUACCUUAGGCCTT against Olfr1329 | inactive: -1.27
GCCCAUAUCUUGCCGAAAUTT against Bbp | inactive: 0.7
GCGGUUAGUGAAAGAAGGATT against 9130017A15Rik | inactive: -0.0298
GGAAUUUGACAAACUCAGCTT against Rcn3 | inactive: 0.337
GCCAGUACGAAGUGAUCUGTT against Ccrl1 | inactive: -2.62
GGUGACGCAGAGGAUCUAUTT against Pmf1 | inactive: -2.08
GGGCCACUGUCGAUAUGAATT against Prr3 | inactive: 0.165
GCCUGUUAGCGGUUGUUGUTT against Syt10 | inactive: 0.592
GGAAUUAUUCCCAAUCCUATT against Cbln1 | inactive: 0.916
GCUUGCUAGAGUGAUCUCGTT against Adsl | inactive: 0.297
CCCACAGAACCACACAUUCTT against H2-DMa | inactive: -0.82
GGAUUUGGAUUUGUAAGCUTT against Pabpc1 | inactive: -2.66
GGUUUAGACAGACUUUAGATT against Zbtb9 | inactive: -0.803
GGACCUUUCCCAAUUCCUUTT against Cyp2e1 | inactive: 0.782
CCAACUGGCAUUUGAUGUGTT against 5330438E18Rik | inactive: 0.838
GGGUUACUUCAGAUUUUGCTT against Atoh8 | inactive: 0.0396
GGACGAAGCUCUGAAACACTT against Fbxl2 | inactive: -0.169
GGGAACAUACUUCCUAAAGTT against A330104H05Rik | inactive: -0.197

Sequence | z-score
CCAUAUGUGAUUUGUCUUGTT against Cacnb2 | inactive: 0.108
GCAUUUUCUAGAUGGAAGCTT against Hao1 | inactive: 1.17
GCACUAACCUAUACAUCUCTT against Sorl1 | inactive: 0.579
CCACAUGAGUGGACCUACGTT against Arid3c | inactive: -1.38
GCUAGUUUGCCUGAAUAUUTT against Kif27 | inactive: 0.21
CCCUGGCUGUCCUCUAUAATT against Ripply1 | inactive: 0.908
GGAGGUUAAGAUUCCAGAGTT against 9230112O05Rik | inactive: 0.769
GAGUAUCAUUUCCUGUUUUTT against Olfr389 | inactive: 0.0641
GGAUAUUUGGAGGACAACCTT against C1s | inactive: -0.0211
GGGAAAUUUAAAGCCCUCUTT against Olfr1225 | inactive: -0.986
GGGCAACACAGGACAUCUATT against Amot | inactive: -1.41
GGUUGAAAAUUUCAAACAGTT against Btg4 | inactive: 1.76
GGCAUUCUGUGAGACACAATT against Exosc10 | inactive: -2.18
GCACAAGUUCGUGCCAGGUTT against Prf1 | inactive: 0.0127
GCAAGUUUGAGGAUCUAAATT against Gnai2 | inactive: -0.212
CCGAGAAAAAGCAGAAAUCTT against Psma2 | inactive: -3.55
CCGAGCGAGACAAAUGGAGTT against Ing1l | inactive: -0.536
GGUCAAUGGCCACAAGUUCTT against Prkce | inactive: -0.63
GCACUGUGACGAUACAAGATT against Asb1 | inactive: 0.67
GGACAUACCAGAAGAAAUUTT against Sult1d1 | inactive: -0.0198
CGAUCCUCUUUGUUUAUCUTT against Olfr998 | inactive: 1.42

Exported with each value named: part of the list above.
GGAGGUUAAGAUUCCAGAGTT against 9230112O05Rik
  z-score: inactive: 0.769
GGGCAACACAGGACAUCUATT against Amot
  z-score: inactive: -1.41
